The source of these data is publication PMC9803661.

The chains behind the UniProt entries cited, without tags or fusion partners. Residues count along the entry.
UniProt P07174, residues 30-425: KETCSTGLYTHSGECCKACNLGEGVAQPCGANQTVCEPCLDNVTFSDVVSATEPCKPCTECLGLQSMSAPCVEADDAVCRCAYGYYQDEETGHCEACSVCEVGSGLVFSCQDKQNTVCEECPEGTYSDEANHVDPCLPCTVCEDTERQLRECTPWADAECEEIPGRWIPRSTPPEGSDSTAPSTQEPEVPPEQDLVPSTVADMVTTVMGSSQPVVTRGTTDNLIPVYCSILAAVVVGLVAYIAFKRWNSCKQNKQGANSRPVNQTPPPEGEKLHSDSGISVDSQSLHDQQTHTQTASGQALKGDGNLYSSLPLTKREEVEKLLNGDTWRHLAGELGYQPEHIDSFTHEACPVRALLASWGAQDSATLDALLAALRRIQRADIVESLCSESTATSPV

These are yes or no findings as the source states them, for the method shown. In cells and extracts the contact can be indirect. Some entries that bind do so weakly or less than the wild type.

The target in the assay is T1, Mage-D1 (MAGE family member D1; melanoma-associated antigen D1) (rat (endogenous in E19.5 d EMSCs)) (UniProt Q9ES73).
T1 sequence: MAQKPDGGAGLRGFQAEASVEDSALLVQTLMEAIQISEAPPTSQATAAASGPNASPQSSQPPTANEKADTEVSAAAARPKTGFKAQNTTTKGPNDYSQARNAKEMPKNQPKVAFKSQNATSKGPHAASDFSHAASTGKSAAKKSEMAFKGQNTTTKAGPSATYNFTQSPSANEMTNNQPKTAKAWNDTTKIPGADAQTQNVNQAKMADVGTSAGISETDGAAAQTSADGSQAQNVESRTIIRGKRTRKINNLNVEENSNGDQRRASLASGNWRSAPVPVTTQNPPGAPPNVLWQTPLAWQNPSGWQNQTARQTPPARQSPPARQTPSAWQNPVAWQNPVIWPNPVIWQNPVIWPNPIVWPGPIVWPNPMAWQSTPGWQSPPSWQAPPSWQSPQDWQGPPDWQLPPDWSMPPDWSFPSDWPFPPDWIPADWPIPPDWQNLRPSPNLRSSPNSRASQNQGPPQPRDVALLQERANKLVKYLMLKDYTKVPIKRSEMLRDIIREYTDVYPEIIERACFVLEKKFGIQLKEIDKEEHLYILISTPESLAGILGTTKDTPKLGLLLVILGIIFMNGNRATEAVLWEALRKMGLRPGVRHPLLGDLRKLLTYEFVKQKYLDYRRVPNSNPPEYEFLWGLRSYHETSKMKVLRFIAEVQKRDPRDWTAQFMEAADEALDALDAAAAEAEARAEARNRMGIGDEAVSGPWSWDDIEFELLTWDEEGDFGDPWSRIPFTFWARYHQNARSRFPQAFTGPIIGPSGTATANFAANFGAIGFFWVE
Kind of assay: co-IP; magnetic beads with rabbit polyclonal anti-Mage-D1 antibody (2 h), then E19.5 d rat EMSC protein lysate overnight at 4 °C; Western blot for p75NTR, Dlx1, Msx1. In general terms: A western blot detects proteins with antibodies after separation by electrophoresis.

As to “p75 neurotrophin receptor (p75NTR) (from UniProt P07174 30-425)”, the binding result was “binds”.
